Results taken from article PMC7862700.
The other results are listed elsewhere or left out. The exact form of the protein is not confirmed.

Each sequence was assayed against T1, ETV4 (UniProt P43268) (assay: DAPPL (digital affinity profiling via proximity ligation, sequencing)). Details: 10 mM Tris-HCl pH 7.5, 50 mM NaCl, 1 mM DTT, 4% glycerol, room temperature, 30 min; GST-TFs on glutathione beads, 16-mer random dsDNA library, 0.1% …; high values mean tight binding; double strand, one strand shown; scale: fold enrichment (6-mer frequency, TF over GST control).
T1 sequence: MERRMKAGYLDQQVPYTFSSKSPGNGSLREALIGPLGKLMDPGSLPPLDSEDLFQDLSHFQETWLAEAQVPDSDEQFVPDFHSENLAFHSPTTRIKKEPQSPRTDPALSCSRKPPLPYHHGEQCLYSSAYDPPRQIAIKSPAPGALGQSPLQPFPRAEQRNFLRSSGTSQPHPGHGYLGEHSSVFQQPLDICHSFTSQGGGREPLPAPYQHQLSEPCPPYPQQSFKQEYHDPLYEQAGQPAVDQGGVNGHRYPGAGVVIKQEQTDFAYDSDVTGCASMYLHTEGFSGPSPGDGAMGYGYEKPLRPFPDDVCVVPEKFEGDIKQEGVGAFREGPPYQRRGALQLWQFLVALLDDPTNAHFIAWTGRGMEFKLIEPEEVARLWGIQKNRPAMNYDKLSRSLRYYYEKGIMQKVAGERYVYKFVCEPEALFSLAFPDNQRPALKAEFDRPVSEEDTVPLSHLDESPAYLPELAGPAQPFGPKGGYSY
Work on TAAATG yielded a binding signal of 1.31.
For CATATC, the binding signal was 1.4.
CATTCT gave a binding signal of 1.3.
For CTGGCT, the binding signal was 1.3.
With ACATAA the binding signal was 1.08.
Sequence CCCCTG has a binding signal of 1.26.
Work on TCCAAA yielded a binding signal of 1.14.
ATAATC gave a binding signal of 1.15.
Sequence CACGGA has a binding signal of 1.
For TACGAC, the binding signal was 1.39.
GTTCTC showed a binding signal of 1.31.
Sequence CCGTTC has a binding signal of 1.46.
ATGGTC showed a binding signal of 1.55.
Sequence GGGGCT has a binding signal of 1.03.
With TCTTTT the binding signal was 1.44.
With TATTGC the binding signal was 1.43.
For GGAAAA, the binding signal was 1.13.
ATGGTG gave a binding signal of 1.08.
With TCAACA the binding signal was 1.09.
Work on TTCGCG yielded a binding signal of 1.11.
TACGTC gave a binding signal of 1.18.
Work on TCCATG yielded a binding signal of 1.16.
Work on ACCTAT yielded a binding signal of 1.27.
Sequence CGCTCG has a binding signal of 1.17.
TGATCC was tested, and the binding signal was 1.29.
Sequence CGTAGC has a binding signal of 1.12.
With TCCGTC the binding signal was 1.28.
For ATCTTG, the binding signal was 1.32.
For CGACAA, the binding signal was 1.17.
TATTTA gave a binding signal of 1.34.
Work on ATTGTC yielded a binding signal of 1.17.
TGACGC was tested, and the binding signal was 1.16.
With CATACA the binding signal was 1.09.
In the case of TCCTGA, the binding signal is reported as 1.47.
For GCTCTA, the binding signal was 1.25.
ATCCAC showed a binding signal of 1.21.
AAGCTG showed a binding signal of 1.12.
In the case of TCCGTA, the binding signal is reported as 1.54.
For GTATCC, the binding signal was 1.8.
GTTATT gave a binding signal of 1.11.
